{"sequences": {"note": "Amino acid sequences for entries named in this document (tags omitted). A change or cut given only in a name is not applied to a line headed by its entry.", "UniProt P48775": "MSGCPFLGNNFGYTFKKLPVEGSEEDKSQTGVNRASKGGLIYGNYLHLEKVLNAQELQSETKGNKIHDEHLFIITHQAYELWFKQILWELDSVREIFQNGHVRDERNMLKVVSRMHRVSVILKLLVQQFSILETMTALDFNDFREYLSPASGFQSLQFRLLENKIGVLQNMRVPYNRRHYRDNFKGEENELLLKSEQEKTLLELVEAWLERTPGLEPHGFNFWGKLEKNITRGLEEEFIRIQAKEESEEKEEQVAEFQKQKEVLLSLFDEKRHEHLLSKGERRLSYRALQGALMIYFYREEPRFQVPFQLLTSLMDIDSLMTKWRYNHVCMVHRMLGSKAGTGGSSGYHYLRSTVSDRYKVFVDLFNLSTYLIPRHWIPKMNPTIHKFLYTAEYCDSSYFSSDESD"}, "source": "patent US10882856B2", "about": "(BeiGene, Ltd., priority 2017, dated 2021)", "target": "T1, TDO2 in 293-TDO2 cells (Homo sapiens, UniProt P48775)", "T1 construct": "expressed in transfected cells; host or cells: HEK293 (ATCC), stably transfected", "experiment": "293-TDO2 cell-based TDO2 Kyn (kynurenine) production assay", "how_it_was_run": "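HEK293 cells stably transfected to express tryptophan 2,3-dioxygenase were seeded at 10000 per well in 96-well plates in phenol red-free DMEM with 10% FBS. After 4 hours, DMSO-diluted compound dilutions were added, and cells were kept 48 hours at 37 °C, 5% CO2. Supernatant was deproteinised with trichloroacetic acid, and kynurenine was measured at 480 nm after adding 2% 4-(dimethylamino)benzaldehyde. Potency came from four-parameter logistic fits in XLfit.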", "note": "Some of these results come from one statement about several compounds together.", "data": [{"smiles": "OC(c1c(C2CC2)ccc2cncn12)[C@H]1CC[C@H](c2ccc(Cl)cc2)CC1", "note": "(single isomer, unassigned) [Example D103b]", "values": [{"measurement": "EC50", "result": "> 10", "unit": "µM"}]}]}
